# Laboratory results as given in paper PMC8384837.
# Residue numbers refer to the chain shown, from its start. The list shows a part of the results. For part of these data: At the low end of the ranking the order means little.
# How the values were obtained:
# Conditions in all cases: yeast three-hybrid, YBZ-1, SC-Leu-His + 0.5 mM 3-AT, 4 days
# [1] = molecular target: T1, PUM1 PUF domain R1-QFR R2-VFQ R7-NPG S863Q + R864F + Q867R + N899V + Y900F + S1079N + N1080P + E1083G (UniProt Q14671)
# T1 sequence: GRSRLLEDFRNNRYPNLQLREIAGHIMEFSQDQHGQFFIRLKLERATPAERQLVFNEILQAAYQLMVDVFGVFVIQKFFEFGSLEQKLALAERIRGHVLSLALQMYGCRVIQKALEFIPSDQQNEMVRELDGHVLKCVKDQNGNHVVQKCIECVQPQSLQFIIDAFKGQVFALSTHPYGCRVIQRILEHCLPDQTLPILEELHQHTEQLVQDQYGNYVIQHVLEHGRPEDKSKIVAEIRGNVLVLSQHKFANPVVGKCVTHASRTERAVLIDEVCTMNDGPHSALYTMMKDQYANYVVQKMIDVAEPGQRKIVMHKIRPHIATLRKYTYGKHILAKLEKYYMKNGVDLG
# [2] = molecular target: T2, PUM1 PUF domain R2-VFQ R3-THE R4-TFR N899V + Y900F + C935T + R936H + Q939E + N971T + H972F + Q975R (UniProt Q14671)
# T2 sequence: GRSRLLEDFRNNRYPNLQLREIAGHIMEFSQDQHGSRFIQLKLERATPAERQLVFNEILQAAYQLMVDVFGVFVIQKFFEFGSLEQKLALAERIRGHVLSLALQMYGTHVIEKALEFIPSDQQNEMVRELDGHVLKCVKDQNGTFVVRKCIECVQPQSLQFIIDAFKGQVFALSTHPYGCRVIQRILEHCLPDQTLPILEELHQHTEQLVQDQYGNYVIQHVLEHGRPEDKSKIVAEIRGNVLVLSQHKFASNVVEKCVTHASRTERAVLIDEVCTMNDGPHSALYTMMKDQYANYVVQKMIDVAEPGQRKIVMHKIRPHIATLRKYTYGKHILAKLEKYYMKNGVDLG
# [3] = molecular target: T3, PUM1 PUF domain R3-APL C935A + R936P + Q939L (UniProt Q14671)
# T3 sequence: T2 sequence with V72N, F73Y, T108A, H109P, E112L, T144N, F145H, R148Q
# [4] = molecular target: T4, PUM1 PUF domain R3-APS C935A + R936P + Q939S (Homo sapiens) (UniProt Q14671)
# T4 sequence: T2 sequence with V72N, F73Y, T108A, H109P, E112S, T144N, F145H, R148Q
# [5] = molecular target: T5, PUM1 PUF domain R3-APV C935A + R936P + Q939V (UniProt Q14671)
# T5 sequence: T2 sequence with V72N, F73Y, T108A, H109P, E112V, T144N, F145H, R148Q
# [6] = molecular target: T6, PUM1 PUF domain R3-ARG C935A + Q939G (Homo sapiens) (UniProt Q14671)
# T6 sequence: T2 sequence with V72N, F73Y, T108A, H109R, E112G, T144N, F145H, R148Q
# [7] = molecular target: T7, PUM1 PUF domain R3-ARH C935A + Q939H (UniProt Q14671)
# T7 sequence: T2 sequence with V72N, F73Y, T108A, H109R, E112H, T144N, F145H, R148Q
# [8] = molecular target: T8, PUM1 PUF domain R3-ARL C935A + Q939L (Homo sapiens) (UniProt Q14671)
# T8 sequence: T2 sequence with V72N, F73Y, T108A, H109R, E112L, T144N, F145H, R148Q
# [9] = molecular target: T9, PUM1 PUF domain R3-ART C935A + Q939T (Homo sapiens) (UniProt Q14671)
# T9 sequence: T2 sequence with V72N, F73Y, T108A, H109R, E112T, T144N, F145H, R148Q
# [10] = molecular target: T10, PUM1 PUF domain R3-ARV C935A + Q939V (Homo sapiens) (UniProt Q14671)
# T10 sequence: T2 sequence with V72N, F73Y, T108A, H109R, E112V, T144N, F145H, R148Q
# [11] = molecular target: T11, PUM1 PUF domain R3-ASY C935A + R936S + Q939Y (UniProt Q14671)
# T11 sequence: T2 sequence with V72N, F73Y, T108A, H109S, E112Y, T144N, F145H, R148Q
# [12] = molecular target: T12, PUM1 PUF domain R3-CPG R936P + Q939G (UniProt Q14671)
# T12 sequence: T2 sequence with V72N, F73Y, T108C, H109P, E112G, T144N, F145H, R148Q
# [13] = molecular target: T13, PUM1 PUF domain R3-DAK C935D + R936A + Q939K (Homo sapiens) (UniProt Q14671)
# T13 sequence: T2 sequence with V72N, F73Y, T108D, H109A, E112K, T144N, F145H, R148Q
# [14] = molecular target: T14, PUM1 PUF domain R3-DFV C935D + R936F + Q939V (Homo sapiens) (UniProt Q14671)
# T14 sequence: T2 sequence with V72N, F73Y, T108D, H109F, E112V, T144N, F145H, R148Q
# [15] = molecular target: T15, PUM1 PUF domain R3-DRL C935D + Q939L (UniProt Q14671)
# T15 sequence: T2 sequence with V72N, F73Y, T108D, H109R, E112L, T144N, F145H, R148Q
# [16] = molecular target: T16, PUM1 PUF domain R3-DYG C935D + R936Y + Q939G (UniProt Q14671)
# T16 sequence: T2 sequence with V72N, F73Y, T108D, H109Y, E112G, T144N, F145H, R148Q
# [17] = molecular target: T17, PUM1 PUF domain R3-DYS C935D + R936Y + Q939S (UniProt Q14671)
# T17 sequence: T2 sequence with V72N, F73Y, T108D, H109Y, E112S, T144N, F145H, R148Q
# [18] = molecular target: T18, PUM1 PUF domain R3-DYV C935D + R936Y + Q939V (Homo sapiens) (UniProt Q14671)
# T18 sequence: T2 sequence with V72N, F73Y, T108D, H109Y, E112V, T144N, F145H, R148Q
# [19] = molecular target: T19, PUM1 PUF domain R3-EFL C935E + R936F + Q939L (Homo sapiens) (UniProt Q14671)
# T19 sequence: T2 sequence with V72N, F73Y, T108E, H109F, E112L, T144N, F145H, R148Q
# [20] = molecular target: T20, PUM1 PUF domain R3-ESL C935E + R936S + Q939L (UniProt Q14671)
# T20 sequence: T2 sequence with V72N, F73Y, T108E, H109S, E112L, T144N, F145H, R148Q
# [21] = molecular target: T21, PUM1 PUF domain R3-EWL C935E + R936W + Q939L (Homo sapiens) (UniProt Q14671)
# T21 sequence: T2 sequence with V72N, F73Y, T108E, H109W, E112L, T144N, F145H, R148Q
# [22] = molecular target: T22, PUM1 PUF domain R3-GCW C935G + R936C + Q939W (Homo sapiens) (UniProt Q14671)
# T22 sequence: T2 sequence with V72N, F73Y, T108G, H109C, E112W, T144N, F145H, R148Q
# [23] = molecular target: T23, PUM1 PUF domain R3-GFF C935G + R936F + Q939F (Homo sapiens) (UniProt Q14671)
# T23 sequence: T2 sequence with V72N, F73Y, T108G, H109F, E112F, T144N, F145H, R148Q
# [24] = molecular target: T24, PUM1 PUF domain R3-GFL C935G + R936F + Q939L (Homo sapiens) (UniProt Q14671)
# T24 sequence: T2 sequence with V72N, F73Y, T108G, H109F, E112L, T144N, F145H, R148Q
# [25] = molecular target: T25, PUM1 PUF domain R3-GFW C935G + R936F + Q939W (Homo sapiens) (UniProt Q14671)
# T25 sequence: T2 sequence with V72N, F73Y, T108G, H109F, E112W, T144N, F145H, R148Q
# [26] = molecular target: T26, PUM1 PUF domain R3-GPC C935G + R936P + Q939C (Homo sapiens) (UniProt Q14671)
# T26 sequence: T2 sequence with V72N, F73Y, T108G, H109P, E112C, T144N, F145H, R148Q
# [27] = molecular target: T27, PUM1 PUF domain R3-GPS C935G + R936P + Q939S (Homo sapiens) (UniProt Q14671)
# T27 sequence: T2 sequence with V72N, F73Y, T108G, H109P, E112S, T144N, F145H, R148Q
# [28] = molecular target: T28, PUM1 PUF domain R3-GPT C935G + R936P + Q939T (UniProt Q14671)
# T28 sequence: T2 sequence with V72N, F73Y, T108G, H109P, E112T, T144N, F145H, R148Q
# [29] = molecular target: T29, PUM1 PUF domain R3-GPV C935G + R936P + Q939V (Homo sapiens) (UniProt Q14671)
# T29 sequence: T2 sequence with V72N, F73Y, T108G, H109P, E112V, T144N, F145H, R148Q
# [30] = molecular target: T30, PUM1 PUF domain R3-GPW C935G + R936P + Q939W (UniProt Q14671)
# T30 sequence: T2 sequence with V72N, F73Y, T108G, H109P, E112W, T144N, F145H, R148Q
# [31] = molecular target: T31, PUM1 PUF domain R3-GPY C935G + R936P + Q939Y (Homo sapiens) (UniProt Q14671)
# T31 sequence: T2 sequence with V72N, F73Y, T108G, H109P, E112Y, T144N, F145H, R148Q
# [32] = molecular target: T32, PUM1 PUF domain R3-GRF C935G + Q939F (UniProt Q14671)
# T32 sequence: T2 sequence with V72N, F73Y, T108G, H109R, E112F, T144N, F145H, R148Q
# [33] = molecular target: T33, PUM1 PUF domain R3-GRL C935G + Q939L (Homo sapiens) (UniProt Q14671)
# T33 sequence: T2 sequence with V72N, F73Y, T108G, H109R, E112L, T144N, F145H, R148Q
sequence,measurement,setting,value
GGCUAGAACUAGUGGAUCCCCCGGCGCCCGGCGGCUCGAGCCCGGGUAAGUGUAAGUAGUCUGCAUGCCGCCGGGCGCCAUGCCUGCAGGUCGACUCUAGAAAACAUG,binding signal (log2 enrichment (interaction score)),[1],-6.06
same,binding signal (log2 enrichment (interaction score)),[2],-5.04
same,binding signal (log2 enrichment (interaction score)),[3],< -8.76
same,binding signal (log2 enrichment (interaction score)),[4],-1.88
same,binding signal (log2 enrichment (interaction score)),[5],-2.69
same,binding signal (log2 enrichment (interaction score)),[6],-0.34
same,binding signal (log2 enrichment (interaction score)),[7],-5.17
same,binding signal (log2 enrichment (interaction score)),[8],-0.83
same,binding signal (log2 enrichment (interaction score)),[9],0.03
same,binding signal (log2 enrichment (interaction score)),[10],-0.43
same,binding signal (log2 enrichment (interaction score)),[11],< -8.15
same,binding signal (log2 enrichment (interaction score)),[12],-2.16
same,binding signal (log2 enrichment (interaction score)),[13],-0.3
same,binding signal (log2 enrichment (interaction score)),[14],-1.22
same,binding signal (log2 enrichment (interaction score)),[15],< -8.1
same,binding signal (log2 enrichment (interaction score)),[16],-4.99
same,binding signal (log2 enrichment (interaction score)),[17],-5.83
same,binding signal (log2 enrichment (interaction score)),[18],1.29
same,binding signal (log2 enrichment (interaction score)),[19],0.03
same,binding signal (log2 enrichment (interaction score)),[20],< -10.1
same,binding signal (log2 enrichment (interaction score)),[21],0.18
same,binding signal (log2 enrichment (interaction score)),[22],-1.41
same,binding signal (log2 enrichment (interaction score)),[23],-0.66
same,binding signal (log2 enrichment (interaction score)),[24],0.21
same,binding signal (log2 enrichment (interaction score)),[25],-1.23
same,binding signal (log2 enrichment (interaction score)),[26],-0.31
same,binding signal (log2 enrichment (interaction score)),[27],-0.95
same,binding signal (log2 enrichment (interaction score)),[28],-3.35
same,binding signal (log2 enrichment (interaction score)),[29],-2.74
same,binding signal (log2 enrichment (interaction score)),[30],< -9.37
same,binding signal (log2 enrichment (interaction score)),[31],-3.88
same,binding signal (log2 enrichment (interaction score)),[32],-3.62
same,binding signal (log2 enrichment (interaction score)),[33],-1.53

# Some of the entries so far, with bars between the fields.
sequence | measurement | setting | value
GGCUAGAACUAGUGGAUCCCCCGGCGCCCGGCGGCUCGAGCCCGGGUAAGUGUAAGUAGUCUGCAUGCCGCCGGGCGCCAUGCCUGCAGGUCGACUCUAGAAAACAUG | binding signal (log2 enrichment (interaction score)) | [1] | -6.06
same | binding signal (log2 enrichment (interaction score)) | [2] | -5.04
